According to paper PMC10593818:

Biological target: T1, human CLEC2D-Flag (human) (UniProt Q9UHP7)
T1 sequence: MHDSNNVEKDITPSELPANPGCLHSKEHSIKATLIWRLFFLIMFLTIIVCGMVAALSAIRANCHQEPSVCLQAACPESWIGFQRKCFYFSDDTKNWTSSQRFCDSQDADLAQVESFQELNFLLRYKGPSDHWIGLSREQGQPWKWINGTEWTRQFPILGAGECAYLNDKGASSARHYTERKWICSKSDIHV
Experiment: co-IP; tagged proteins co-expressed in HEK293T cells, without or with C. albicans yeast (MOI = 5); lysed in Western and IP buffer; antibody-conjugated magnetic beads overnight at 4 °C; immunoblot

| Substance | binding |
| --- | --- |
| human TLR2 with the transmembrane domain deleted (domain or fragment) | binds |
| human TLR2 with the intracellular domain deleted (domain or fragment) | binds |
| human TLR2 with the extracellular domain deleted (domain or fragment) | no binding |

No constants are given. Whether binding was seen depends on the method and setting. Binding seen in cells or lysates may run through a third protein. A result given as binding can be weak or reduced; the word gives no strength. Where a sequence is shown, tags or fusion partners need not be part of it.
